Data as given in the supplement of paper PMC4604168 (melanoma cell lines).
The other results are listed elsewhere or left out. Single values are uncertain, as repeats are few or missing.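 Cells were imaged in 1,536-well plates, and nuclei stained with an antibody against cleaved PARP were counted against all DNA-stained nuclei to give the apoptosis fraction. Screening doses were chosen to leave most cells alive, and resting and induced cleaved-PARP levels differ strongly between cell lines.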

Assays:
Test in all cases: cleaved PARP positive nuclei fraction relative to DMSO control; melanoma cells; higher = more apoptosis
Conditions in all cases: library dose: low library concentration; 72 h
MZ2-MEL = system: MZ2-MEL
MeWo = system: MeWo
RPMI7951 = system: RPMI7951
RVH-421 = system: RVH-421
SkMel28 = system: SkMel28
SkMel30 = system: SkMel30
SkMel5 = system: SkMel5
UACC257 = system: UACC257
UACC62 = system: UACC62

| SMILES | cleaved PARP positive nuclei fraction (MZ2-MEL) [%] | cleaved PARP positive nuclei fraction (MeWo) [%] | cleaved PARP positive nuclei fraction (RPMI7951) [%] | cleaved PARP positive nuclei fraction (RVH-421) [%] | cleaved PARP positive nuclei fraction (SkMel28) [%] | cleaved PARP positive nuclei fraction (SkMel30) [%] | cleaved PARP positive nuclei fraction (SkMel5) [%] | cleaved PARP positive nuclei fraction (UACC257) [%] | cleaved PARP positive nuclei fraction (UACC62) [%] |
| --- | --- | --- | --- | --- | --- | --- | --- | --- | --- |
| CC1(C)NC(=O)N(c2ccc([N+](=O)[O-])c(C(F)(F)F)c2)C1=O [nilutamide] + O=C(Oc1ccc([N+](=O)[O-])cc1)N1CCC(C(O)(c2ccc3c(c2)OCO3)c2ccc3c(c2)OCO3)CC1 [JZL184] (first compound 1 µM, partner dose 1 µM) | 137 | 47.8 | 42.1 | 56.3 | 73.6 | 33.6 | 52.4 | 101 | 40.9 |
| C[C@]12O[C@H](C[C@]1(O)CO)n1c3ccccc3c3c4c(c5c6ccccc6n2c5c31)CNC4=O [Lestaurtinib] + Clc1ccc(Nc2nnc(Cc3ccncc3)c3ccccc23)cc1 [vatalanib] (first compound 0.004 µM, partner dose 2 µM) | 128 | 49 | 99.5 | 41.4 | 115 | 54.9 | – | – | 136 |
| Nc1cccc2c1CN(C1CCC(=O)NC1=O)C2=O (stereo not given) [lenalidomide] + Cc1cc(SCc2sc(-c3ccc(C(F)(F)F)c(F)c3)nc2C)ccc1OCC(=O)O [GW0742] (first compound 1 µM, partner dose 2 µM) | 85.4 | 157 | 81 | 121 | 87.5 | 13.4 | 56.7 | 106 | 135 |
| CC[C@]1(O)C[C@H]2CN(CCc3c([nH]c4ccccc34)[C@@](C(=O)OC)(c3cc4c(cc3OC)N(C=O)[C@H]3[C@@](O)(C(=O)OC)[C@H](OC(C)=O)[C@]5(CC)C=CCN6CC[C@]43[C@@H]65)C2)C1 [vincristine] + C[C@]12O[C@H](C[C@]1(O)CO)n1c3ccccc3c3c4c(c5c6ccccc6n2c5c31)CNC4=O [Lestaurtinib] (first compound 0.0001 µM, partner dose 0.004 µM) | 138 | 253 | 186 | 160 | 114 | 136 | – | – | 246 |
| C[C@]12O[C@H](C[C@]1(O)CO)n1c3ccccc3c3c4c(c5c6ccccc6n2c5c31)CNC4=O [Lestaurtinib] + CCN(CC)CCCCNc1ncc2cc(-c3cc(OC)cc(OC)c3)c(NC(=O)NC(C)(C)C)nc2n1 [PD173074] (first compound 0.004 µM, partner dose 0.1 µM) | 78.6 | 47 | 53.3 | 128 | 163 | 86.8 | 34.8 | 289 | 135 |
| CO[C@H]1C[C@@H]2CC[C@@H](C)[C@@](O)(O2)C(=O)C(=O)N2CCCC[C@H]2C(=O)O[C@H]([C@H](C)C[C@@H]2CC[C@@H](OCCO)[C@H](OC)C2)CC(=O)[C@H](C)/C=C(\C)[C@@H](O)[C@@H](OC)C(=O)[C@H](C)C[C@H](C)/C=C/C=C/C=C/1C [everolimus] + C/C(O)=C(\C#N)C(=O)Nc1cc(Br)ccc1Br [LFM-A13] (first compound 0.02 µM, partner dose 2 µM) | 188 | 82.2 | 25.9 | 63.5 | 528 | 48.4 | 194 | 359 | 101 |
| NC(=O)c1ccc(N(C(N)=O)c2c(F)cccc2F)nc1-c1ccc(F)cc1F + C[C@]12O[C@H](C[C@]1(O)CO)n1c3ccccc3c3c4c(c5c6ccccc6n2c5c31)CNC4=O [Lestaurtinib] (first compound 0.4 µM, partner dose 0.004 µM) | 31.9 | 97.1 | 98.3 | 63.1 | 67.5 | 91.1 | – | – | 253 |
| C[C@]12O[C@H](C[C@]1(O)CO)n1c3ccccc3c3c4c(c5c6ccccc6n2c5c31)CNC4=O [Lestaurtinib] + CO[C@H]1C[C@@H]2CC[C@@H](C)[C@@](O)(O2)C(=O)C(=O)N2CCCC[C@H]2C(=O)O[C@H]([C@H](C)C[C@@H]2CC[C@@H](OCCO)[C@H](OC)C2)CC(=O)[C@H](C)/C=C(\C)[C@@H](O)[C@@H](OC)C(=O)[C@H](C)C[C@H](C)/C=C/C=C/C=C/1C [everolimus] (first compound 0.004 µM, partner dose 0.02 µM) | 95.5 | 124 | 86.5 | 44.5 | 161 | 75.7 | – | – | 91.5 |
| O=C(/C=C/c1cccnc1)NCCCCC1CCN(C(=O)c2ccccc2)CC1 + C[C@]12O[C@H](C[C@]1(O)CO)n1c3ccccc3c3c4c(c5c6ccccc6n2c5c31)CNC4=O [Lestaurtinib] (first compound 0.01 µM, partner dose 0.004 µM) | 211 | 140 | 134 | 222 | 34.7 | 59.6 | – | – | 97 |
| C[C@]12O[C@H](C[C@]1(O)CO)n1c3ccccc3c3c4c(c5c6ccccc6n2c5c31)CNC4=O [Lestaurtinib] + O=C(O)c1ccc2c(c1)nc(Nc1cccc(Cl)c1)c1ccncc12 [CX4945] (first compound 0.004 µM, partner dose 0.4 µM) | 114 | 65.7 | 48.9 | 73.3 | 161 | 116 | – | – | 115 |
| C[C@]12O[C@H](C[C@]1(O)CO)n1c3ccccc3c3c4c(c5c6ccccc6n2c5c31)CNC4=O [Lestaurtinib] + C#Cc1cccc(Nc2ncnc3cc(OCCOC)c(OCCOC)cc23)c1 [erlotinib] (first compound 0.004 µM, partner dose 0.8 µM) | 109 | 392 | 85.8 | 160 | 94.3 | 226 | – | – | 196 |
| C[C@]12O[C@H](C[C@]1(O)CO)n1c3ccccc3c3c4c(c5c6ccccc6n2c5c31)CNC4=O [Lestaurtinib] + CNC(=O)c1cc(Oc2ccc(NC(=O)Nc3ccc(Cl)c(C(F)(F)F)c3)cc2)ccn1 [sorafenib] (first compound 0.004 µM, partner dose 0.4 µM) | 131 | 111 | 190 | 71.2 | 209 | 93.3 | – | – | 156 |
| OCCn1cc(-c2cnc3nnn(Cc4ccc5ncccc5c4)c3n2)cn1 + Cc1cc(SCc2sc(-c3ccc(C(F)(F)F)c(F)c3)nc2C)ccc1OCC(=O)O [GW0742] (first compound 1 µM, partner dose 2 µM) | 27.9 | 49.1 | 165 | 41.5 | 191 | 47.3 | 229 | 104 | 40.4 |
| C[C@]12O[C@H](C[C@]1(O)CO)n1c3ccccc3c3c4c(c5c6ccccc6n2c5c31)CNC4=O [Lestaurtinib] + CCCS(=O)(=O)Nc1ccc(F)c(C(=O)c2c[nH]c3ncc(Cl)cc23)c1F [PLX4720] (first compound 0.004 µM, partner dose 0.08 µM) | 92.4 | 50.4 | 88 | 219 | 40.2 | 144 | – | – | 45.2 |
| C[As](C)SC[C@H](NC(=O)CC[C@H](N)C(=O)O)C(=O)NCC(=O)O [Darinaparsin] + Cc1cc([N+](=O)[O-])ccc1NS(=O)(=O)c1cc(Cl)ccc1Cl [FH535] (first compound 0.4 µM, partner dose 1 µM) | 94.4 | 81.6 | 132 | 55.7 | 110 | 62.1 | 252 | 167 | 179 |
| Cc1cn(-c2cc(NC(=O)c3ccc(C)c(Nc4nccc(-c5cccnc5)n4)c3)cc(C(F)(F)F)c2)cn1 [nilotinib] + C[C@]12O[C@H](C[C@]1(O)CO)n1c3ccccc3c3c4c(c5c6ccccc6n2c5c31)CNC4=O [Lestaurtinib] (first compound 0.2 µM, partner dose 0.004 µM) | 53.6 | 61.2 | 73.9 | 45.6 | 69.6 | 295 | – | – | 57.5 |
| CCCCCCCCCCCCCCCCCCOP(=O)([O-])OC1CC[N+](C)(C)CC1 [Perifosine] + C[C@]12O[C@H](C[C@]1(O)CO)n1c3ccccc3c3c4c(c5c6ccccc6n2c5c31)CNC4=O [Lestaurtinib] (first compound 0.4 µM, partner dose 0.004 µM) | 202 | 113 | 90.2 | 95.2 | 119 | 16.3 | – | – | 110 |
| C[C@]12O[C@H](C[C@]1(O)CO)n1c3ccccc3c3c4c(c5c6ccccc6n2c5c31)CNC4=O [Lestaurtinib] + C[C@]1(c2nc3c(C(N)=O)cccc3[nH]2)CCCN1 [Veliparib] (first compound 0.004 µM, partner dose 1.4 µM) | 70.4 | 31.3 | 98 | 101 | 80 | 103 | – | – | 85.4 |
| Cn1cc(C2=C(c3cn(C4CCN(Cc5ccccn5)CC4)c4ccccc34)C(=O)NC2=O)c2ccccc21 [Enzastaurin] + C[C@]12O[C@H](C[C@]1(O)CO)n1c3ccccc3c3c4c(c5c6ccccc6n2c5c31)CNC4=O [Lestaurtinib] (first compound 0.8 µM, partner dose 0.004 µM) | 35.6 | 61.9 | 48.7 | 52.8 | 91.2 | 276 | – | – | 154 |

Single records (already shown). Order of values: cleaved PARP positive nuclei fraction (MZ2-MEL) [%] | cleaved PARP positive nuclei fraction (MeWo) [%] | cleaved PARP positive nuclei fraction (RPMI7951) [%] | cleaved PARP positive nuclei fraction (RVH-421) [%] | cleaved PARP positive nuclei fraction (SkMel28) [%] | cleaved PARP positive nuclei fraction (SkMel30) [%] | cleaved PARP positive nuclei fraction (SkMel5) [%] | cleaved PARP positive nuclei fraction (UACC257) [%] | cleaved PARP positive nuclei fraction (UACC62) [%]
OCCn1cc(-c2cnc3nnn(Cc4ccc5ncccc5c4)c3n2)cn1 + Cc1cc(SCc2sc(-c3ccc(C(F)(F)F)c(F)c3)nc2C)ccc1OCC(=O)O [GW0742] (first compound 1 µM, partner dose 2 µM) in the list: 27.9 | 49.1 | 165 | 41.5 | 191 | 47.3 | 229 | 104 | 40.4
O=C(/C=C/c1cccnc1)NCCCCC1CCN(C(=O)c2ccccc2)CC1 + C[C@]12O[C@H](C[C@]1(O)CO)n1c3ccccc3c3c4c(c5c6ccccc6n2c5c31)CNC4=O [Lestaurtinib] (first compound 0.01 µM, partner dose 0.004 µM) in the list: 211 | 140 | 134 | 222 | 34.7 | 59.6 | – | – | 97
